# Reference: US9452185B2, “Mesenchymal stem cells and supports for tissue regeneration, repair and reconstruction” (THE TEXAS A&M UNIVERSITY SYSTEM, priority 2009, dated 2016)
# For at least one compound, name, drawing or mass did not settle the structure.
# Key:
# Type in all cases: cell-based, human
# hMSCs [1] = test: Alkaline phosphatase (ALP) activity of hMSCs in osteogenic media; conditions: osteogenic media without dexamethasone, 8 days
# Procedure: For non-mineralizing osteogenic differentiation, hMSCs were plated in 12-well plates at 100 cells cm^−2. Upon reaching about 70% confluency, the media was changed to osteogenic base media (OBM) containing 50 μg mL^−1 ascorbic acid and 5 mM β-glycerol phosphate and either GW9662 or DMSO. Media was changed every 2 days for 8-10 days following measurement of ALP activity. For this purpose, the monolayer was washed with PBS and then with ALP reaction buffer (100 mM Tris-HCl, pH 9, containing 100 mM KCl and 1 mM MgCl2). One half mL of ALP buffer then 0.5 mL p-nitrophenol phosphate (PNPP) was rapidly added to the wells. ALP activity was measured as the rate of PNPP conversion to p-nitrophenolate by monitoring the absorbance at 405 nm every 30 seconds for 9 minutes using a plate reader. The rates were normalized against cell number and statistically analyzed using one-way analysis of variance (ANOVA) and Tukey post test for multiple comparisons or by Student's t-test, for single, unrelated comparisons.
# Early osteogenic differentiation and alkaline phosphatase assays. […]
# In order to characterize the influence of 7AIPM on osteogenic differentiation, hMSC's from two donors were cultured as described elsewhere herein with the addition of varying concentrations of the compound or vehicle to the media. […] These samples were analyzed for the presence of OPG and Dkk-1 using ELISA. […]
# hMSCs [2] = test: Late stage osteogenesis, Alizarin Red S (ARS) staining; conditions: 20 days in OBM with 10^-8 M dex and 10 μM troglitazone
# Procedure: Late stage osteogenesis and ARS staining. Mature osteogenic assays were performed in 6 well format as previously described (Gregory et al., 2004, Anal Biochem 329:77-84).
# Effect of GSK3β and PPARγ inhibition on late stage osteogenesis. […] Initially, experiments were conducted to examine whether pre-treatment of hMSCs with inhibitors BIO (200 and 800 nM) and GW (1.0 and 10.0 μM) in the presence of β-glycerophosphate (β-GP) and ascorbate for 8 days followed by 15 days in the same media supplemented with dex affected mineralization of the cultures. If BIO or GW function to accelerate the cells through the immature stages of osteogenesis and partially to maturity, hMSCs exposed to these conditions would be expected to respond more rapidly to the steroid-dependent mature osteoblast transition. After differentiation, calcium content was visualized by Alizarin Red S (ARS) staining and the dye was extracted and quantified. At the doses tested, and in a dose-dependent manner, BIO and GW enhanced dex-induced differentiation into biomineralizing osteoblasts (FIG. 21).
# The next experiments were performed to examine whether withdrawal of the Wnt stimulus caused by BIO and GW was necessary for the hMSCs to progress to a dex-dependent biomineralizing phenotype. Human MSCs were pre-cultured with BIO and GW in the presence of f3-GP, ascorbate and dex for 17 days. […]
# hMSCs [3] = test: Adipogenesis in osteogenic cultures (Oil Red O); conditions: 20 days in OBM with 10^-8 M dex and 10 μM troglitazone
structure (smiles),measurement,setting,value
Cc1c(C)c2c(c(C)c1O)CCC(C)(COc1ccc(CC3SC(=O)NC3=O)cc1)O2 (stereo not drawn) [troglitazone],ALP activity,hMSCs [1],dose-dependently down-regulated
same,"mineralization, ARS staining",hMSCs [2],only weak mineralization
same,"adipogenesis, Oil Red O staining",hMSCs [3],Oil Red 0-positive lipid islands
